From patent US11319337B2, “3-desoxy derivative and pharmaceutical compositions thereof” (Intercept Pharmaceuticals, Inc., priority 2016, dated 2022)

Test system: HepG2 cells
Test: In vitro cytotoxicity, LDH release
Assay type: cell-based
Conditions: Homo sapiens
From the text: To evaluate in vitro cytotoxicity of Compound 1, two different assay methods are employed. The assays evaluate cell viability by measuring ATP levels and cytotoxicity by measuring LDH release. Adenosine Triphosphate (ATP) nucleotide represents the source of energy at the basic molecular level, as it is a multifunctional molecule that is used in every cell as a coenzyme and is an integral part of the mitochondrial DNA (Kangas, et al., Medical Biology, 1984, 62, 338-343; Crouch, et al., J Immunol. Methods, 1993, 160, 81-88; and Petty, et al., J Biolumin. Chemilumin. 1995, 10, 29-34). It has been called the “molecular unit of currency” when it comes to intracellular energy transfer. […] Cell viability is determined as a measure of intracellular ATP related to the time of exposure and concentration of the test compounds (Sussman, Promega Cell Notes, Issue 3, 2002).
Another method to determine the viability of cells is to detect the integrity of the membrane that defines the cellular compartmentalization. Measuring the leakage of components out of the cytoplasm, in damaged cell membranes, indicates loss of membrane integrity, and LDH release is the method used to determine common toxicity in cells. HepG2 cells are treated with a compound of the invention, and serial dilutions are performed. […]

Work on CC/C(=C(\c1ccccc1)c1ccc(OCCN(C)C)cc1)c1ccccc1 [Tamoxifen, reference compound] yielded an EC50 of 35 µM.
